Measured values: PubChem BioAssay AID1259415 (National Center for Advancing Translational Sciences (NCATS), 2018)
The campaign covered roughly 410,000 compounds. About 18,000 (4.4%) were called active. Inconclusive results, whose numbers are uncertain, are shown with a selection of clear calls. Cut-off read from the data, not from the text of the source: active = activity change below about -60%; inconclusive = no clear call, values can overlap the other calls; inactive = above about -39%.

test: qHTS Assay for inhibitors of the human cytomegalovirus (HCMV); settings: HFF cells, HCMV-luciferase reporter, 72 h; at 57.5 µM; stronger effect = lower value
Outline: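 After 16 h attachment at 37C, HFF cells received test compound and HCMV-luciferase (1 PFU/cell); reporter luminescence read 72 h later, data normalized against buffer-only and known inhibitor Salinomycin.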
% is set by controls: 0 for no effect and ±100 for the full control effect.

Q: With `Cc1ccsc1/C=N/NC(=O)c1cc(-c2ccncc2)nc2ccccc12` as the molecule, how does the activity change, negative = inhibition read?
A: The activity change, negative = inhibition was active: -95.4%.

Q: For `Cc1ccc(-n2c(SCC(=O)Nc3cccc(Cl)c3)nc3n[nH]c(C)c3c2=N)cc1`, which activity change, negative = inhibition is on record?
A: Its activity change, negative = inhibition is inactive: -33.9%.

Q: For `O=C(COc1ccc([N+](=O)[O-])cc1Cl)N1CCc2ccccc21`, which activity change, negative = inhibition is on record?
A: Its activity change, negative = inhibition is inconclusive: -50.1%.

Q: With `CC1CCN(C(=O)Cn2cnc3c(cnn3C(C)(C)C)c2=O)CC1` as the molecule, how does the activity change, negative = inhibition read?
A: Its activity change, negative = inhibition is inactive: 11.3%.

Q: Which activity change, negative = inhibition does the source give for `COc1ccc(NC(=O)c2ccc(NCCN3C(=O)CCC3=O)c([N+](=O)[O-])c2)cc1` here?
A: Its activity change, negative = inhibition is inconclusive: -52.7%.

Q: With `Oc1ccccc1N=Cc1c(O)ccc2oc3c(c12)CCCC3` as the molecule, how does the activity change, negative = inhibition read?
A: The activity change, negative = inhibition was inconclusive: -53.6%.

Q: With `CCN(C(=O)c1cccc(S(=O)(=O)N(C)C)c1)C12CC3CC(CC(C3)C1)C2` as the molecule, how does the activity change, negative = inhibition read?
A: The activity change, negative = inhibition was inconclusive: -42.6%.

Q: For `S=C1NC[C@H](c2ccccc2)N1CC1CCCCC1`, which activity change, negative = inhibition is on record?
A: Its activity change, negative = inhibition is inconclusive: -41.4%.

Q: With `CCCOC(=O)c1cccc(Nc2nc(-c3cccnc3)nc3ccccc23)c1` as the molecule, how does the activity change, negative = inhibition read?
A: Its activity change, negative = inhibition is inactive: 134%.

Q: Which activity change, negative = inhibition does the source give for `CC(=O)Oc1[nH]c(=O)c2cccc3c2c1CCC3` here?
A: The activity change, negative = inhibition was inactive: 67.1%.

Q: For `COc1ccc(/C=N/NS(=O)(=O)c2ccc(F)cc2)cc1COc1cc(F)ccc1[N+](=O)[O-]`, which activity change, negative = inhibition is on record?
A: The activity change, negative = inhibition was active: -66.2%.

Q: With `CCOC(=O)/C=c1\s/c(=C\c2ccc(C(=O)OC)cc2)c(=O)n1CC(=O)Nc1ccccc1` as the molecule, how does the activity change, negative = inhibition read?
A: Its activity change, negative = inhibition is inconclusive: -42.4%.

Q: Which activity change, negative = inhibition does the source give for `CCOC(=O)C1CCC(CN(Cc2c(Cl)cccc2Cl)S(=O)(=O)c2ccc(F)cc2)CC1` (configuration not stated) here?
A: The activity change, negative = inhibition was inactive: -26.9%.

Q: Which activity change, negative = inhibition does the source give for `O=C(NCc1ccc(N2CCCC2=O)cc1)Nc1cccc(Cl)c1` here?
A: The activity change, negative = inhibition was inconclusive: -52.4%.

Q: With `Cc1sc2ncnc(SCC(=O)NC3CCS(=O)(=O)C3)c2c1C` (configuration not stated) as the molecule, how does the activity change, negative = inhibition read?
A: Its activity change, negative = inhibition is inconclusive: -47.8%.

Q: For `O=C(CNS(=O)(=O)c1ccccc1)N1CCN(Cc2ccccc2)CC1`, which activity change, negative = inhibition is on record?
A: The activity change, negative = inhibition was inactive: 0.992%.

Q: For `O=c1nc(-c2ccccc2)nc(-c2ccccc2)[nH]1`, which activity change, negative = inhibition is on record?
A: Its activity change, negative = inhibition is inconclusive: -50.1%.

Q: Which activity change, negative = inhibition does the source give for `CCOC(=O)C1CCN(C(=O)Cn2ncc3c([nH]c4ccc(C)cc43)c2=O)CC1` here?
A: The activity change, negative = inhibition was inactive: -6.48%.

Q: Which activity change, negative = inhibition does the source give for `CCc1ccc(NC(=O)CSc2nc3ccccc3c(=O)n2CCCN2CCC(C)CC2)cc1` here?
A: Its activity change, negative = inhibition is active: -108%.

Q: For `COc1cc(C(=O)N2CCc3c([nH]c4ccccc34)C2c2ccccc2)cc(OC)c1OC` (configuration not stated), which activity change, negative = inhibition is on record?
A: Its activity change, negative = inhibition is inconclusive: -41.6%.

Q: For `COc1ccc([C@H]2/C=C\CN(C(=O)c3ccccc3)[C@@H](C)C(=O)N2Cc2ccc(F)cc2)cc1`, which activity change, negative = inhibition is on record?
A: Its activity change, negative = inhibition is inconclusive: -42.3%.

Q: Which activity change, negative = inhibition does the source give for `COc1ccc(OC)c(NC(=O)COc2coc(CN3CCc4ccccc43)cc2=O)c1` here?
A: The activity change, negative = inhibition was inactive: -21.5%.

Q: For `OCCC1CN(Cc2cccc3c2OCO3)CCN1Cc1ccccc1` (configuration not stated), which activity change, negative = inhibition is on record?
A: Its activity change, negative = inhibition is inactive: -8.86%.

Q: Which activity change, negative = inhibition does the source give for `COc1ccc2sc(-c3ccc(S(C)(=O)=O)cc3)c(C#CCO)c2c1` here?
A: The activity change, negative = inhibition was inconclusive: -52.4%.

Q: For `COc1ccc(CCCC(=O)Nc2ccc(F)cc2)cc1`, which activity change, negative = inhibition is on record?
A: Its activity change, negative = inhibition is inconclusive: -54.3%.

Q: For `Nc1nc(NC(=O)CCC(=O)O)nn1-c1ccccc1`, which activity change, negative = inhibition is on record?
A: The activity change, negative = inhibition was inactive: -6.33%.

Q: With `O=C(Nc1ccn(CCCNC2CCN(Cc3ccccc3)CC2)c(=O)n1)OCc1ccccc1` as the molecule, how does the activity change, negative = inhibition read?
A: Its activity change, negative = inhibition is inconclusive: -45.2%.

Q: With `CCNc1nc(C23CC4CC(CC(C4)C2)C3)cs1` as the molecule, how does the activity change, negative = inhibition read?
A: Its activity change, negative = inhibition is inconclusive: -52.2%.

Q: Which activity change, negative = inhibition does the source give for `Cc1ccc(NC(=S)NCc2ccccc2Cl)c(C)c1` here?
A: Its activity change, negative = inhibition is inconclusive: -45.2%.

Q: Which activity change, negative = inhibition does the source give for `CCn1cc(CNC(=O)c2cc(COc3ccc(F)cc3F)on2)cn1` here?
A: Its activity change, negative = inhibition is inconclusive: -57.9%.

Q: Which activity change, negative = inhibition does the source give for `CCN(CC(=O)NCc1ccc(F)cc1)S(=O)(=O)c1ccc(C)cc1` here?
A: The activity change, negative = inhibition was inconclusive: -58.5%.

Q: Which activity change, negative = inhibition does the source give for `COC(=O)c1cc(OC)c(OC)cc1NC(=O)c1ccc(C)cc1` here?
A: The activity change, negative = inhibition was inactive: -28%.

Q: Which activity change, negative = inhibition does the source give for `COc1ccc(Cn2c(O)c(C=Nc3ccc(O)cc3)c3ccccc3c2=O)cc1` here?
A: Its activity change, negative = inhibition is inconclusive: -59.2%.

Q: With `O=C(O)CCCc1ccc(N(CCCl)CCCl)cc1` as the molecule, how does the activity change, negative = inhibition read?
A: The activity change, negative = inhibition was inactive: 0.79%.

Q: For `COCCCNC(=O)C1CCN(c2cc(C)nc3c(-c4ccc(OC)c(OC)c4)c(C)nn23)CC1`, which activity change, negative = inhibition is on record?
A: The activity change, negative = inhibition was inactive: 3.89%.

Q: With `COc1cc(C2C(C#N)=C(N)OC3=C2C(=O)CCC3)cc2c1OCO2` (configuration not stated) as the molecule, how does the activity change, negative = inhibition read?
A: Its activity change, negative = inhibition is inconclusive: -42.9%.

Q: For `CCc1cc2c(N3CCN(C(=O)c4ccco4)CC3)ncnc2s1`, which activity change, negative = inhibition is on record?
A: Its activity change, negative = inhibition is inconclusive: -51.8%.

Q: For `CC(=O)c1ccc(N2CCN(C3C(=O)c4ccccc4N3C(C)=O)CC2)cc1` (configuration not stated), which activity change, negative = inhibition is on record?
A: The activity change, negative = inhibition was inactive: 0%.

Q: With `O=C1c2sc3nc4n(c(=O)c3c2CCC1Br)CCCCC4` (configuration not stated) as the molecule, how does the activity change, negative = inhibition read?
A: Its activity change, negative = inhibition is inactive: 59.1%.

Q: Which activity change, negative = inhibition does the source give for `COc1ccccc1N1CCN(S(=O)(=O)CCNC(=O)CC2CCCCC2)CC1` here?
A: Its activity change, negative = inhibition is inactive: -34.4%.

Q: With `COc1ccc(-n2c(=O)c3ccc(C(=O)NCc4ccc(C)cc4)cc3n(CC(=O)Nc3ccc(C)cc3)c2=O)cc1` as the molecule, how does the activity change, negative = inhibition read?
A: The activity change, negative = inhibition was active: -70.8%.

Q: For `CCOCC(=O)Nc1cccc(OC)c1`, which activity change, negative = inhibition is on record?
A: The activity change, negative = inhibition was inactive: -7.1%.
